Experimental findings from article PMC5412822 are described below.

Chains of the proteins cited; added tags and fusions are not shown.
UniProt Q96EP0: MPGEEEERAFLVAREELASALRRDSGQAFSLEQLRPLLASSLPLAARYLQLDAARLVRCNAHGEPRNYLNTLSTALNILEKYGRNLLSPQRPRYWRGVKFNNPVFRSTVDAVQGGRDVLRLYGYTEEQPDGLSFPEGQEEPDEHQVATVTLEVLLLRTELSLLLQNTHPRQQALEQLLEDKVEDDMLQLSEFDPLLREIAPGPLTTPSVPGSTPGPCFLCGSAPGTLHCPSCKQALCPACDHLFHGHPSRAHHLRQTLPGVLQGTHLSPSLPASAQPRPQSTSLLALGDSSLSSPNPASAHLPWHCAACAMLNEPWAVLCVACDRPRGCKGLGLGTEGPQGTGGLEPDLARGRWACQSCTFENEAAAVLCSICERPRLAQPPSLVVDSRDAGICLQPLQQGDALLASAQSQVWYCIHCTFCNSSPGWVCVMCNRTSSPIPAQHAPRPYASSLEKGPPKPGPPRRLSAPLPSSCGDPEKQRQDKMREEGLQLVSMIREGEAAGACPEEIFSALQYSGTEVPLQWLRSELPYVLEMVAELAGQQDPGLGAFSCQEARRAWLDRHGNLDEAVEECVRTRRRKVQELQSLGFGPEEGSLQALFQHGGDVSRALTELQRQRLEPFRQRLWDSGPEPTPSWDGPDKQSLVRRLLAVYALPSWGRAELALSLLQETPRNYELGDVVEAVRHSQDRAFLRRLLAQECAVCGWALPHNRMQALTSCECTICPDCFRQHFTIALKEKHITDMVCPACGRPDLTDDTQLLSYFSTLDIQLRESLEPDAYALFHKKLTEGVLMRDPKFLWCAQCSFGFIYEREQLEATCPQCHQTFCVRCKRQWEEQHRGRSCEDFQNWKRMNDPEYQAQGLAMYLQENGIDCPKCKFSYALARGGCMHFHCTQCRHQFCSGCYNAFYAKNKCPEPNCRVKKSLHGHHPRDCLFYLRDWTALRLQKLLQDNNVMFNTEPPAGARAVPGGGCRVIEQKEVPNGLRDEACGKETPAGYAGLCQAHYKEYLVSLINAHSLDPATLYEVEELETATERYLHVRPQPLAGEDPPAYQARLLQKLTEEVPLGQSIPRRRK
UniProt Q14790: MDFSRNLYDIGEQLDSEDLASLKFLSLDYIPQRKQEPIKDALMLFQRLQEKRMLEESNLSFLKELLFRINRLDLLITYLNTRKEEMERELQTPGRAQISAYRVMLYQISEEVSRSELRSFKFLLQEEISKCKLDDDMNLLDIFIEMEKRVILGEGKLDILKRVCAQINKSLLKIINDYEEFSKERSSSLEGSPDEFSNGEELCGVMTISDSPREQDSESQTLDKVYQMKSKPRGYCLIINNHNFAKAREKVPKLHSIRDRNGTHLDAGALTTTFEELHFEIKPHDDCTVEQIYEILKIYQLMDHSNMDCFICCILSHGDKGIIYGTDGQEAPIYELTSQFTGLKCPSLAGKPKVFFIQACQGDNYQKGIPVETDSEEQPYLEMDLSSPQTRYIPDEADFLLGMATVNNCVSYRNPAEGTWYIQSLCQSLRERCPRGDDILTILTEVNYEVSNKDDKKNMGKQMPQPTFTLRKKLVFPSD
UniProt Q13158: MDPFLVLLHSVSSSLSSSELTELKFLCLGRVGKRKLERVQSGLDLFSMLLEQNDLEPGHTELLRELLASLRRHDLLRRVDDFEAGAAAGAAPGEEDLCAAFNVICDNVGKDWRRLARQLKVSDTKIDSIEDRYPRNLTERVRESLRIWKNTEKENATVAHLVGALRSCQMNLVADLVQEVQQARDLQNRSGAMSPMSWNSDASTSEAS
UniProt Q9BYM8: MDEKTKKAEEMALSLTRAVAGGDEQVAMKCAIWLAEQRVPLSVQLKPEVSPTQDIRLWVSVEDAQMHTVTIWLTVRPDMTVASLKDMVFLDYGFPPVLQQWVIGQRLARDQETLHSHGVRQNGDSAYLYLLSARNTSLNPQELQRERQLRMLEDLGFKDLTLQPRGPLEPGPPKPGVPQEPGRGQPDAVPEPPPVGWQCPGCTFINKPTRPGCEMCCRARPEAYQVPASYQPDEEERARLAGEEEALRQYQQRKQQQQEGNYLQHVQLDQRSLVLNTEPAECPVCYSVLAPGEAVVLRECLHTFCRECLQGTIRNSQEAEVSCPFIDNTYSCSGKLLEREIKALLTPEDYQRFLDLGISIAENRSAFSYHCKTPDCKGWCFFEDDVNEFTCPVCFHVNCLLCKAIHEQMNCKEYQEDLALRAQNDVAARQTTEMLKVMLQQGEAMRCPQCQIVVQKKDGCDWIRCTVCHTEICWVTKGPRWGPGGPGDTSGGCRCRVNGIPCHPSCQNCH

One assay concerns the target HOIP‐TAP (UniProt Q96EP0). In words: co-IP; HOIP KO K562 or HeLa cells reconstituted with HOIP-TAP (or empty vector), pre-treated with zVAD for 1 h, stimulated with iz-TRAIL (1 μg/ml or 500 ng/ml) for 1 h; HOIP-TAP precipitated with anti-FLAG beads, Western blot. On the technique in general: In western blotting, separated proteins are transferred to a membrane and probed.

The target of assay [1] is caspase‐8 (human (endogenous in HeLa, A549 and K562)) (UniProt Q14790). In words: co-IP; TRAIL complex II: HeLa cells stimulated with FLAG-lz-TRAIL (500 ng/ml); complex I-depleted lysates incubated overnight at 4°C with protein G beads coupled with anti-caspase-8 antibody (clone C20), Western blot.

Results are given in words; binding and its absence hold for the method and conditions named. In cells and extracts the contact can be indirect. Some binding calls cover weakened binding; strength is not graded here.

Consider FADD (from UniProt Q13158 1-208), for which the binding result with HOIP‐TAP is recorded as “binds”.

In the case of HOIL‐1 (from UniProt Q9BYM8 1-510), in assay [1], the binding entry is given as “binds”. Still for that read-out and setting: to “HOIP (from UniProt Q96EP0 1-1072) (enzyme)” belongs “binds”.

Take “caspase‐8 (from UniProt Q14790 1-479) (enzyme)”: in the assay with HOIP‐TAP, the binding result is reported as “binds”.
